Test results reported in PMC12040169 (PLOS Biology, 2025).
Some of the results follow.

tested on: T1, CTL2-GFP (C. trachomatis L2/434/Bu, GFP-expressing); design: species or system HeLa; Intracellular C. trachomatis growth in HeLa cells, bulk GFP fluorescence relative to DMSO; settings: bulk GFP, single well; 28.5 h, 10 µM; inhibitor
T1 construct: L2/434/Bu, GFP-expressing

Row | SMILES | % of control remaining [%]
1 | c1ccc(CSc2nnc3[nH]c4ccccc4n23)cc1 [CBK267841] | 109.688
2 | Cc1nc(CCNCc2c(C)nn(C)c2N(C)C)cs1 [CBK304828] | 105.764
3 | CC(=O)c1ccc(-c2nc(-c3ccoc3)cnc2N)cc1 [CBK064058] | 150.099
4 | O=S(=O)(Nc1ccc(C(O)(C(F)(F)F)C(F)(F)F)cc1)c1ccccc1Br [CBK062101] | 109.402
5 | Cc1nc2cc(C(=O)NC(C)c3ccccn3)ccc2n1C (stereo not shown) [CBK281822] | 180.337
6 | Cc1nc[nH]c1CN1CCCN(S(=O)(=O)c2ccc(-n3cnc(Cl)c3Cl)cc2)CC1 [CBK063087] | 118.476
7 | COc1cnc(-c2cnn(C)c2)c(NC(=O)c2ccco2)n1 [CBK145329] | 174.64
8 | CC(=O)N(C)Cc1cccc(Nc2ncnc3c2cnn3CCC#N)c1 [CBK306232] | 132.703
9 | O=[N+]([O-])c1ccc(N2CCN(C/C=C/c3ccccc3[N+](=O)[O-])CC2)cc1 [CBK261895] | 115.318
10 | O=C(O)CC(CC(=O)N1CCN(Cc2ccc3c(c2)OCO3)CC1)c1ccccc1 (stereo not shown) [CBK074769] | 105.131
11 | N#Cc1cc(CN2CCCN(S(=O)(=O)c3ccc(C(F)(F)F)cc3Cl)CC2)ccc1F [CBK063100] | 69.3247
12 | Cc1ccc(-c2n[nH]c(=S)n2CC(=O)N2CCC(C(=O)Nc3ccc4c(c3)OCO4)CC2)cc1 [CBK297887] | 126.015
13 | CCOc1c(CNCc2ccccn2)cccc1OC [CBK268104C] | 147.218
14 | CC(C)(C)OC(=O)N1CCC(C(Cc2ccc(-c3ccc(S(C)(=O)=O)cc3)cc2)C(=O)NCCOCCO)CC1 (stereo not shown) [CBK173128] | 100.09
15 | Cc1ccc(C(=O)NCCc2nnc3ccc(Cl)nn23)cc1 [CBK287636] | 108.218
16 | COc1nc2ccn(CCNC(=O)C(C)C)c(=O)c2cc1C#N [CBK307015] | 142.724
17 | CC(=O)NCc1ccc(C)n1C [CBK046356] | 142.462
18 | CN(Cc1cnn(C)c1)C(=O)c1ccc(Br)cc1O [CBK305742] | 138.474
19 | CNC(=O)CCc1ccccc1NC(=O)NCCSc1ncn[nH]1 [CBK307253] | 131.889
20 | CCOC(=O)N1CCC(NC(=O)CCC(=O)O)CC1 [CBK286569] | 124.482
21 | Cc1nnnn1-c1cc(NC(=O)NCCCc2nc[nH]n2)ccc1F [CBK304102] | 131.27
22 | CN(Cc1ccccc1)c1nccnc1-c1ccsc1 [CBK037394] | 173.978
23 | CCCCCn1c(=O)c(C(=O)NCc2ccc(Cl)cc2)c(O)c2ccccc21 [CBK291131] | 122.134
24 | CN(C)C(=O)c1ccc(-c2ncc(OCc3cccs3)nc2N)cc1 [CBK145187] | 100.149
25 | Cc1cc(Cl)ccc1CNC(=O)C1(c2ccccc2)CCCC1 [CBK149519] | 116.807
26 | CSCCN1CCC2(CC1)CN(CC(N)=O)c1ccccc12 [CBK126801] | 125.935
27 | Cn1c2ccccc2c2nnc(SCCc3ccccc3)nc21 [CBK267986] | 72.109

In the list so far, these have a carbonyl joined to an NH by a bond outside any ring:
Row | SMILES | % of control remaining [%]
5 | Cc1nc2cc(C(=O)NC(C)c3ccccn3)ccc2n1C (stereo not shown) [CBK281822] | 180.337
7 | COc1cnc(-c2cnn(C)c2)c(NC(=O)c2ccco2)n1 [CBK145329] | 174.64
12 | Cc1ccc(-c2n[nH]c(=S)n2CC(=O)N2CCC(C(=O)Nc3ccc4c(c3)OCO4)CC2)cc1 [CBK297887] | 126.015
14 | CC(C)(C)OC(=O)N1CCC(C(Cc2ccc(-c3ccc(S(C)(=O)=O)cc3)cc2)C(=O)NCCOCCO)CC1 (stereo not shown) [CBK173128] | 100.09
15 | Cc1ccc(C(=O)NCCc2nnc3ccc(Cl)nn23)cc1 [CBK287636] | 108.218
16 | COc1nc2ccn(CCNC(=O)C(C)C)c(=O)c2cc1C#N [CBK307015] | 142.724
17 | CC(=O)NCc1ccc(C)n1C [CBK046356] | 142.462
19 | CNC(=O)CCc1ccccc1NC(=O)NCCSc1ncn[nH]1 [CBK307253] | 131.889
20 | CCOC(=O)N1CCC(NC(=O)CCC(=O)O)CC1 [CBK286569] | 124.482
21 | Cc1nnnn1-c1cc(NC(=O)NCCCc2nc[nH]n2)ccc1F [CBK304102] | 131.27
23 | CCCCCn1c(=O)c(C(=O)NCc2ccc(Cl)cc2)c(O)c2ccccc21 [CBK291131] | 122.134
25 | Cc1cc(Cl)ccc1CNC(=O)C1(c2ccccc2)CCCC1 [CBK149519] | 116.807
26 | CSCCN1CCC2(CC1)CN(CC(N)=O)c1ccccc12 [CBK126801] | 125.935

A few values from the entries so far:
`Cc1nnnn1-c1cc(NC(=O)NCCCc2nc[nH]n2)ccc1F` [CBK304102] | % of control remaining [%]: 131.27
`CCOC(=O)N1CCC(NC(=O)CCC(=O)O)CC1` [CBK286569] | % of control remaining [%]: 124.482

Following part:

Row | SMILES | % of control remaining [%]
28 | O=C(O)CN1C(=O)C(=O)/C(=C(O)\C=C\c2ccccc2)C1c1ccccc1 (stereo not shown) [CBK286551] | 101.214
29 | O=C(Cn1cnnn1)N1CCc2ccccc21 [CBK200367] | 111.288
30 | O=C(CCn1c(=O)oc2cc(Cl)ccc21)NCc1ccco1 [CBK269857] | 142.365
31 | O=C(Nc1cccnc1)c1cc(S(=O)(=O)N2CCOCC2)ccc1Br [CBK270101] | 112.103
32 | Cc1cccc(N2CCN(C(=O)C3CCN(Cc4cccc(OCc5ccccc5)c4)CC3)CC2)c1C [CBK264328G] | 94.4558
33 | Cc1ccc(N2C(=O)c3ccccc3C2=O)cc1 [CBK113243] | 119.18
34 | Cc1ccc(C)c(C(=O)C2=C(O)C(=O)N(CCN(C)C)C2c2cccc(Cl)c2)c1 (stereo not shown) [CBK265495] | 132.487
35 | Cc1ccccc1C1(O)CCN(CC(O)c2ccc(F)cc2)CC1 (stereo not shown) [CBK282471] | 139.193
36 | CCOC(=O)NC(=S)NC(=O)C(C)(C)C [CBK020037] | 124.873
37 | CCN1C(=O)COC[C@@H]1[C@H](O)c1ccc(NC(=O)c2ccco2)cc1 [CBK289695] | 117.854
38 | COc1cccc(C(=O)N2CCC(NC(=O)c3ccc(C(F)(F)F)cc3)CC2)c1 [CBK155022] | 89.6924
39 | OCCCCn1c(-c2cccnc2)n[nH]c1=S [CBK288365] | 154.516
40 | CC(=O)NC(c1nccs1)C1CCCN(C(=O)C2CCCC2)C1 (stereo not shown) [CBK284966] | 119.721
41 | CCn1c(SCC(=O)Nc2ccccc2[N+](=O)[O-])nnc1-c1cc(Br)ccc1O [CBK268201] | 112.217
42 | COc1cccc(Oc2nccnc2-c2cccs2)c1 [CBK107059] | 110.455
43 | COc1ccc(-c2cnc3[nH]c(=O)n(CCCN4CCOCC4)c3n2)c(OC)c1OC [CBK064249] | 73.241
44 | Cc1ccc(-c2ncc(OCCC(C)C)nc2N)cc1C [CBK145145] | 128.292
45 | COC(=O)CCCC(=O)n1ccn(-c2cccc(C(F)(F)F)c2)c1=O [CBK106580] | 180.848
46 | O=C(NCc1nc2ccccc2[nH]1)c1cc(-c2ccc(Cl)cc2)cnc1NCc1ccc2c(c1)OCO2 [CBK106377] | 85.6538
47 | CC1=CC(C)C2(COC(=O)Nc3ccccc3)COC(c3cccnc3)C1C2C (stereo not shown) [CBK262844] | 89.6828
48 | N/C(=N\OC(=O)c1ccccc1CCc1ccccc1)c1cccnc1 [CBK268188] | 44.8464
49 | O=C(O)CCCC(=O)N1CCN(C(=O)c2sc3cc(Cl)ccc3c2Cl)CC1 [CBK286973] | 113.643
50 | O=[N+]([O-])c1ccc2nc(Sc3nc4ccccc4[nH]3)sc2c1 [CBK263356] | 100
51 | CC(C)(C)OC(=O)N1CCN(c2ccc(Cl)nn2)CC1 [CBK113381] | 92.8939
52 | Cn1ccnc1C1(O)CCN(C(=O)CC2CCCCC2)CC1 [CBK283647] | 116.105
53 | COCCNc1nccnc1-c1ccccc1F [CBK038044] | 133.343
54 | OB(O)c1ccc(Oc2ccc(B(O)O)cc2)cc1 [CBK261159] | 86.9854

Row | SMILES | % of control remaining [%]
55 | CN(CCN1CCCCC1)C(=O)c1ccccc1Cn1cccn1 [CBK281904] | 102.635
56 | COCCCNC(=O)C1CCCN(c2nc3c(-c4ccccc4)csc3c(=O)[nH]2)C1 (stereo not shown) [CBK215498] | 141.119
57 | O=S(=O)(Nc1cccc2ncccc12)c1ccc(OC(F)(F)F)cc1 [CBK044490] | 96.2443
58 | Cc1ccc(C2=CCN(CC(N)=O)CC2)o1 [CBK283570] | 96.2256
59 | Cc1ccc(S(=O)(=O)N2CCN(C(=O)C3C4C=CC(C4)C3C(=O)O)CC2)cc1 (stereo not shown) [CBK286944] | 113.901
60 | CN(CC(=O)Nc1ccc(N(C)C)cc1)Cc1ccc(F)cc1 [CBK295188] | 150.122
61 | COc1cc(CNc2nccnc2-c2cccc(CO)c2)cc(OC)c1 [CBK037403] | 123.111
62 | CCc1ccc(CNC(=O)Cn2cc(-c3ccc(CN4CCC(CO)CC4)cc3)nn2)cc1 [CBK167551] | 123.46
63 | O=C(c1ccc(F)cc1)C1CCN(C/C=C/c2ccccc2)CC1 [CBK149124] | 100
64 | O=C(CN(c1ccc(Cl)cc1)S(=O)(=O)c1ccccc1)Nc1ccc(F)cc1 [CBK264013] | 100
65 | CCN(CC)C(=O)Cn1c(=O)n(Cc2ccco2)c2ncccc21 [CBK284016] | 98.4451
66 | CCOC(=O)c1csc(C2CCCN2C(=O)CC2C=CCCC2)n1 (stereo not shown) [CBK305407] | 135.977
67 | Cc1cccc(NC2=NC(=O)/C(=C\c3ccc(Cl)cc3)S2)c1C [CBK263619] | 79.0686
68 | Cc1ccccc1OC(C)C(=O)NCCCc1ccccc1 (stereo not shown) [CBK268571] | 149.56
69 | COc1cc(/C=N/NC(=O)c2ccccn2)ccc1OC(=O)c1cccc2ccccc12 [CBK262110] | 116.849
70 | CC1CCCC(C)N1S(=O)(=O)c1ccc(NC(=O)CCn2cnc3ccccc3c2=O)cc1 (stereo not shown) [CBK267643] | 141.373
71 | Cc1ccc(C)c(Oc2coc3cc(OCC(=O)Nc4ccccc4C(C)C)ccc3c2=O)c1 [CBK265906] | 182.614
72 | CNC(=O)c1sc2ccccc2c1C1CCN(Cc2nc3ccccc3n2C(C)C)C1 (stereo not shown) [CBK285929] | 73.2905
73 | CC(=O)Nc1ccc(CN(CCO)C2CCc3ccccc32)cc1 (stereo not shown) [CBK304104] | 156.537
74 | Cc1ccc2oc(-c3cccc(NC(=O)c4ccc(-c5ccc([N+](=O)[O-])cc5)o4)c3C)nc2c1 [CBK263437] | 127.913
75 | CC1CCCCN1Cc1nc2c(c(=O)n(C)c(=O)n2C)n1CCCc1ccccc1 (stereo not shown) [CBK269326] | 136.05
76 | Cc1cc(C(=O)Nc2ccc(-c3nc4ccccc4s3)c(O)c2)ccc1[N+](=O)[O-] [CBK262820] | 90.7151
77 | CC(C)(c1ccc(Oc2ccc3c(c2)C(=O)N(c2nccs2)C3=O)cc1)c1ccc(Oc2ccc3c(c2)C(=O)N(c2nccs2)C3=O)cc1 [CBK262258] | 100
78 | S=c1cc(SCc2ccccc2Cl)nc[nH]1 [CBK288496] | 118.455
79 | Cc1c(NC(=O)CN(c2ccccc2)S(=O)(=O)N(C)C)cccc1[N+](=O)[O-] [CBK269012] | 117.844
